Earlier results as cited in patent publication US20250367332A1, “PSMA-TARGETED RADIOACTIVE METAL COMPLEX CONTAINING NITROAROMATIC HETEROCYCLIC GROUP AND PREPARATION METHOD” (BEIJING NORMAL UNIVERSITY, priority 2023, published 2025).
For at least one compound, name, drawing or mass did not settle the structure.

Details: cited from earlier work

O=C(O)CCc1ccc(O)c(CN(CCN(CC(=O)O)Cc2cc(CCC(=O)O)ccc2O)CC(=O)O)c1 [HBED-CC, N,N′-Bis[2-hydroxy-5-(carboxyethyl)benzyl]ethylenediamine-N,N′-diacetic acid]
thermodynamic stability constant with Ga^3+ (logKML): 38.5
